Assay results: article PMC9322318
No constants are given. Whether binding was seen depends on the method and setting. In cells and extracts the contact can be indirect. Some results given as binding are weak or reduced against the parent protein; the word gives no strength.

The chains behind the UniProt entries cited, without tags or fusion partners.
UniProt Q96EB6: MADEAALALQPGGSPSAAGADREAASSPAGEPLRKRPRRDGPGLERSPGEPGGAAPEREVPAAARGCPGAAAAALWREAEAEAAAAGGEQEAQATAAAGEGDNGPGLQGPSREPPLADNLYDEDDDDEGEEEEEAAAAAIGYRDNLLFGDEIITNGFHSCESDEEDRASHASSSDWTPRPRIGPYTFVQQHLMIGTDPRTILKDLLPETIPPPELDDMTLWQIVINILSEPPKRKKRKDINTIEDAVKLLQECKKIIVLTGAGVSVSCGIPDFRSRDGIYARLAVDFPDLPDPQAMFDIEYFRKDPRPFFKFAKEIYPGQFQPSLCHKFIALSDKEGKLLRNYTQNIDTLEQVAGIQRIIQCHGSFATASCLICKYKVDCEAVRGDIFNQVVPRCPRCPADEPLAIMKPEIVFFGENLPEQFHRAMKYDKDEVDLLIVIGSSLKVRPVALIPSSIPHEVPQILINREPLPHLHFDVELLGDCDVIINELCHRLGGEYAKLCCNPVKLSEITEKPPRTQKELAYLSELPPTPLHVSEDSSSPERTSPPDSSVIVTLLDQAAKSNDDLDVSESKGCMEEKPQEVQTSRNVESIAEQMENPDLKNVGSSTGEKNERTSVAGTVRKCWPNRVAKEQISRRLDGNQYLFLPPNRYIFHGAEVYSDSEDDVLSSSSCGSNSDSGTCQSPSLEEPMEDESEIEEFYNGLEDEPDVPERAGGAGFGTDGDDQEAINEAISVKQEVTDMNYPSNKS
UniProt Q09472: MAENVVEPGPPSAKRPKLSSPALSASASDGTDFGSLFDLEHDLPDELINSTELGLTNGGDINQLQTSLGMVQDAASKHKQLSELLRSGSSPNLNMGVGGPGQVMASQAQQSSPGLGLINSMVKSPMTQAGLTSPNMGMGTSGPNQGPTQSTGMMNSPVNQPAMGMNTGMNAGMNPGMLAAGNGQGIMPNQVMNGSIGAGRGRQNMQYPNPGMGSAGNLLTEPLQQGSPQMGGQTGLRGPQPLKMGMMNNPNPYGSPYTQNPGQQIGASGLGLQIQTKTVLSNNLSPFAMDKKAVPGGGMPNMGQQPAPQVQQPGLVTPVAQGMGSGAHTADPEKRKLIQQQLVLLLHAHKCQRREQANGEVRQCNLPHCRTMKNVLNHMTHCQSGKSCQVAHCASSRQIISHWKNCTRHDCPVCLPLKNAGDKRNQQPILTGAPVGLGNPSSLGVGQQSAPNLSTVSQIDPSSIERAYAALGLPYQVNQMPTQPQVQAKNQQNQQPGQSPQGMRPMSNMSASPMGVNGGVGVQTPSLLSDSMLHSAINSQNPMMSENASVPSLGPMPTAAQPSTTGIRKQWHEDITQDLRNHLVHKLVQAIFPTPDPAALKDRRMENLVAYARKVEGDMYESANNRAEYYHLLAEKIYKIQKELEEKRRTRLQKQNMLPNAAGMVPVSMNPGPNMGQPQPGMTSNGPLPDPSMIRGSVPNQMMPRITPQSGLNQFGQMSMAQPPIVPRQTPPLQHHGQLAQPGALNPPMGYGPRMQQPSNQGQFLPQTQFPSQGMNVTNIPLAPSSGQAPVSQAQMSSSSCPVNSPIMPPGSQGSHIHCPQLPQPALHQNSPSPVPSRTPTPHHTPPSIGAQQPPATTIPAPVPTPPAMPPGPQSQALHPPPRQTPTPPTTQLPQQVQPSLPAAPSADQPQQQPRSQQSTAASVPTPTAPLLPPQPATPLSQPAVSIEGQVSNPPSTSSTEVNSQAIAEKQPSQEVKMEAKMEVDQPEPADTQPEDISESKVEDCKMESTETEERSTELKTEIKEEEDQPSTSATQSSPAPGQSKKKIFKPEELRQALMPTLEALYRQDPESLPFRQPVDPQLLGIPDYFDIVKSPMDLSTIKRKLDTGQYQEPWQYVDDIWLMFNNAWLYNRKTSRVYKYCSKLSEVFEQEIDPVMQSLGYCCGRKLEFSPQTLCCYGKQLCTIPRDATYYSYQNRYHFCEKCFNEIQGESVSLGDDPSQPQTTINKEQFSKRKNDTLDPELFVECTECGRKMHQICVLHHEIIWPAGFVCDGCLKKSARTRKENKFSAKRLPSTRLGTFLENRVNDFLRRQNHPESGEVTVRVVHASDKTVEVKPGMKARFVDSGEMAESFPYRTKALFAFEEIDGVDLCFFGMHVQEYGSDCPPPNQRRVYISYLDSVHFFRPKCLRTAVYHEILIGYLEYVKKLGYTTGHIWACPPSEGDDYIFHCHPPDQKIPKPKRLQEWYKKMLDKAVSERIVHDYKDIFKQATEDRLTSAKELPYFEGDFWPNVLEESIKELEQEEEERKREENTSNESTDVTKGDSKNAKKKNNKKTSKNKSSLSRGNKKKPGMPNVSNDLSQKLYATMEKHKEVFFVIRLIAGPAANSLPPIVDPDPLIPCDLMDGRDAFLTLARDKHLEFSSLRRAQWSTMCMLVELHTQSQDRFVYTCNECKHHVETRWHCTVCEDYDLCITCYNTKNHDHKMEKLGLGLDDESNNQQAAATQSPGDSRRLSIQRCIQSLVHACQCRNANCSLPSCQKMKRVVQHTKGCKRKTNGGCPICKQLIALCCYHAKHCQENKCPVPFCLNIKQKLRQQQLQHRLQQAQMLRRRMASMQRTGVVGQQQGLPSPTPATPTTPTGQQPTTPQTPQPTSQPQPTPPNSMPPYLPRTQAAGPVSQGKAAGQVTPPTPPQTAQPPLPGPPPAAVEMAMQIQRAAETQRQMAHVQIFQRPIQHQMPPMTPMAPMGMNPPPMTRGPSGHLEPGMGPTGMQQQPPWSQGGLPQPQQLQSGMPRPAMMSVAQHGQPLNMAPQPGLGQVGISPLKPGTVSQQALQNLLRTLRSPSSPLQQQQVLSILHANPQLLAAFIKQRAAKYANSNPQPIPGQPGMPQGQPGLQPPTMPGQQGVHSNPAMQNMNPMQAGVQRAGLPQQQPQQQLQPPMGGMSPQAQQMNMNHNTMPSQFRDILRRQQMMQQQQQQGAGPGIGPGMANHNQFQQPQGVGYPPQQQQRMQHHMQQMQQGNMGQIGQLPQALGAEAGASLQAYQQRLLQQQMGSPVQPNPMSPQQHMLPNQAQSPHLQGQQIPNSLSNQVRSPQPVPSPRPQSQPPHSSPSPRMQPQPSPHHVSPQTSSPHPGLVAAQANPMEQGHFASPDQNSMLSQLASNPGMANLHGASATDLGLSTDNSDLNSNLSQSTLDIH

What was measured:
[1] = target: Sirtuin 1 (human (endogenous in hESC-derived chondrogenic pellets)) (UniProt Q96EB6); experiment: co-IP; 15–20 day 14 + 14 pellets (treated with DMSO or SRT1720) fixed 1 h in 4% paraformaldehyde, ground, lysed in RIPA buffer; 100 µg lysate incubated overnight at 4°C with antibody to SIRT1 (Millipore) or to P300 (Abcam), magnetic beads 5 h at 4°C, washed 3 times in PBS; western blot for ARID5B
[2] = target: histone acetyltransferase P300 (human (endogenous in hESC-derived chondrogenic pellets)) (UniProt Q09472); experiment: as above

binding [1]: binds
binding [2]: no binding
B1: AT‐rich interaction domain 5B (protein, UniProt Q14865 1-1188)
chain: MEPNSLQWVGSPCGLHGPYIFYKAFQFHLEGKPRILSLGDFFFVRCTPKDPICIAELQLLWEERTSRQLLSSSKLYFLPEDTPQGRNSDHGEDEVIAVSEKVIVKLEDLVKWVHSDFSKWRCGFHAGPVKTEALGRNGQKEALLKYRQSTLNSGLNFKDVLKEKADLGEDEEETNVIVLSYPQYCRYRSMLKRIQDKPSSILTDQFALALGGIAVVSRNPQILYCRDTFDHPTLIENESICDEFAPNLKGRPRKKKPCPQRRDSFSGVKDSNNNSDGKAVAKVKCEARSALTKPKNNHNCKKVSNEEKPKVAIGEECRADEQAFLVALYKYMKERKTPIERIPYLGFKQINLWTMFQAAQKLGGYETITARRQWKHIYDELGGNPGSTSAATCTRRHYERLILPYERFIKGEEDKPLPPIKPRKQENSSQENENKTKVSGTKRIKHEIPKSKKEKENAPKPQDAAEVSSEQEKEQETLISQKSIPEPLPAADMKKKIEGYQEFSAKPLASRVDPEKDNETDQGSNSEKVAEEAGEKGPTPPLPSAPLAPEKDSALVPGASKQPLTSPSALVDSKQESKLCCFTESPESEPQEASFPSFPTTQPPLANQNETEDDKLPAMADYIANCTVKVDQLGSDDIHNALKQTPKVLVVQSFDMFKDKDLTGPMNENHGLNYTPLLYSRGNPGIMSPLAKKKLLSQVSGASLSSSYPYGSPPPLISKKKLIARDDLCSSLSQTHHGQSTDHMAVSRPSVIQHVQSFRSKPSEERKTINDIFKHEKLSRSDPHRCSFSKHHLNPLADSYVLKQEIQEGKDKLLEKRALPHSHMPSFLADFYSSPHLHSLYRHTEHHLHNEQTSKYPSRDMYRESENSSFPSHRHQEKLHVNYLTSLHLQDKKSAAAEAPTDDQPTDLSLPKNPHKPTGKVLGLAHSTTGPQESKGISQFQVLGSQSRDCHPKACRVSPMTMSGPKKYPESLSRSGKPHHVRLENFRKMEGMVHPILHRKMSPQNIGAARPIKRSLEDLDLVIAGKKARAVSPLDPSKEVSGKEKASEQESEGSKAAHGGHSGGGSEGHKLPLSSPIFPGLYSGSLCNSGLNSRLPAGYSHSLQYLKNQTVLSPLMQPLAFHSLVMQRGIFTSPTNSQQLYRHLAAATPVGSSYGDLLHNSIYPLAAINPQAAFPSSQLSSVHPSTKL
